The values below come from PubChem BioAssay AID2014 (Sanford-Burnham Center for Chemical Genomics, 2009).

Chains of the proteins cited; added tags and fusions are not shown.
UniProt P11940, whole entry: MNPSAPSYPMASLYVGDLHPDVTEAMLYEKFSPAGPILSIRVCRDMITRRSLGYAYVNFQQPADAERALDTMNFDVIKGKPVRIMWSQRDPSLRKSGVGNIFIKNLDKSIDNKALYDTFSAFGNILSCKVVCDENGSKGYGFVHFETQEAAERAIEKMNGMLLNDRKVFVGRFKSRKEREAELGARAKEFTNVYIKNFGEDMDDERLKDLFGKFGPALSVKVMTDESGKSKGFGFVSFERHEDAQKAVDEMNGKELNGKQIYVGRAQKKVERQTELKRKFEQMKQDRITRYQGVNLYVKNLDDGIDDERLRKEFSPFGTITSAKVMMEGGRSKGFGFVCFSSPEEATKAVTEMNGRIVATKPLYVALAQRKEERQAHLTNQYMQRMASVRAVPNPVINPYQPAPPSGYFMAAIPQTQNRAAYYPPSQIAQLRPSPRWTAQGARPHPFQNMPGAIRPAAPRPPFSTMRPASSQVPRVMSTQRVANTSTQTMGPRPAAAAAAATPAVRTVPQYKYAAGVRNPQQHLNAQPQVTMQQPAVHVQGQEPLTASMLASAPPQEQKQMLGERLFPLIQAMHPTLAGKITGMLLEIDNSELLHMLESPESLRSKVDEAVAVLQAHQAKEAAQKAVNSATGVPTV

This is one part of the list.

The target of the experiment is Polyadenylate-binding protein 1 (Homo sapiens) (UniProt P11940). Briefly: PABP poly(A) RNA binding inhibitors, primary screen, biochemical, fluorescence polarization, uHTS (AID 2014). As to conditions: confirmation repeats, at 20 µM, stronger effect = higher value.
Take `O=[N+]([O-])c1cc([N+](=O)[O-])c(-c2ccn[nH]2)s1`: the inhibition is 7.3%. In the case of `CCOC(=O)Nc1ccc([As](=O)(O)O)c(O)c1` it was 77.9%; in that of `CS(=O)(=O)c1cc([N+](=O)[O-])c2no[n+]([O-])c2c1`, 67.2%; in that of `CC(C)(C)C(=O)NC(Sc1ccccc1)C(Cl)(Cl)Cl` (stereo not drawn), 9.7%.

`COc1ccc(OP(C)(=O)Nc2ccc(SC(F)(F)F)cc2)cc1` (stereo not drawn) displayed an inhibition of 1.2%. `CC(=O)NC(SC(=S)N(C)C)C(Cl)(Cl)Cl` (stereo not drawn) displayed an inhibition of 76.6%. The figure for `O=[N+]([O-])c1ccc(O)c(/C=N/Nc2ccc([N+](=O)[O-])cc2[N+](=O)[O-])c1` is 12.4%; for `O=[N+]([O-])c1cc([N+](=O)[O-])c(CCN2CCOCC2)c([N+](=O)[O-])c1` it is 67.5%.
